Patent US12427212B2, “Nectin-4 binding miniproteins, conjugates and uses thereof” (Aktis Oncology, Inc., priority 2023, dated 2025)
For at least one compound, name, drawing or mass did not settle the structure. Bridges are numbered along the chain shown (N, C = ends). The star is where a group is joined. DOTA = O=C(O)CN1CCN(CC(=O)O)CCN(CC(=O)*)CCN(CC(=O)O)CC1; PEG4 = NCCOCCOCCOCCOCCC(=O)O

Target: T1, Nectin-4 (Homo sapiens, UniProt Q96NY8)
T1 sequence (Q96NY8 32-510): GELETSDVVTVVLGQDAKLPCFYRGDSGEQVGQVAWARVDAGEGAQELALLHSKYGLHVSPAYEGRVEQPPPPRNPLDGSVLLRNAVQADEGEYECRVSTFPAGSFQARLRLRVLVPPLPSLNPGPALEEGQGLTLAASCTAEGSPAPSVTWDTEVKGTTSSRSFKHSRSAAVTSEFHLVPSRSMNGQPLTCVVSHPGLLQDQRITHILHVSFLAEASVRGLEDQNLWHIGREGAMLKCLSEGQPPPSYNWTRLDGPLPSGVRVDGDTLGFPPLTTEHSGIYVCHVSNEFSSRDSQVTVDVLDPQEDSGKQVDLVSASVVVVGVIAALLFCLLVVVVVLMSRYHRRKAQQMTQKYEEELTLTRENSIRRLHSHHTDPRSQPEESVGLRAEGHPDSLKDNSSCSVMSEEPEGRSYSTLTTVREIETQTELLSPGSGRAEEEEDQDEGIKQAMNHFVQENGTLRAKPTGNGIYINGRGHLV
Test: DELFIA whole cell binding assay, equilibrium binding affinity (KD), Table 2B
Conditions: binding to Nectin-4
Protocol: A whole cell binding assay was used to estimate the equilibrium binding affinity (KD) or binding inhibition constant (Ki) of miniprotein ligands to cells expressing a target of interest. Cells were dispensed into a 384-well plate and incubated at 37° C., in 5% CO2 overnight. The next day cells were gently washed once in assay buffer prior to addition of europium chelated ligand. For KD determination, a miniprotein conjugated with europium chelate (DOTA or DTPA) in the presence or absence of 100-fold excess un-conjugated ligand was incubated with cells over 12 different concentrations ranging from 100 times below and above expected KD values. For Ki determination, a single concentration (KD equivalent concentration) of europium-chelate miniprotein was added to each well followed immediately by the addition of unconjugated competing ligand over 12 different concentrations ranging from 100 times below and above expected Ki values as before. The plate was incubated for 1.5 h at room temperature to reach binding equilibrium. Cells were then washed three times at room temperature with 1×PBS followed by the addition of 2 M HCl and incubated for two h at 37° C. […] Plates were read on an Envision plate reader and a curve-fitting model was applied to estimate KD and Ki values using GraphPad Prism software. Mean DELFIA K; values for exemplary miniproteins are recorded in TABLE 9A.

Substance: {DOTA-PEG4}-CEYDEEFFAGLKRLRGGDICYYIKKKFDKVPDLCIEEILDKLGC-OH (disulfide 1-34, 20-44) [Compound C12]
- Kd: 10.5 nM
